# At least one compound was matched to its structure with a doubt left.
# Tested on: S. aureus MW2 ΔXV
# Experiment: Antimicrobial susceptibility test (VITEK 2 system)
# Format: cell-based, Staphylococcus aureus
# Conditions: MW2 ΔXV vs MW2
# Description: Antibiotic sensitivity tests were performed at the University Clinic of Navarra. Antibiotics routinely used in clinic for treatment of S. aureus infections were tested by VITEK 2 system. • Growth Kinetics Analysis
smiles,measurement,value
C[C@H]1COc2c(N3CCN(C)CC3)c(F)cc3c(=O)c(C(=O)O)cn1c23 [Levofloxacin],Susceptibility of MW2 ΔXV mutant compared with parental strain,more susceptible
